Laboratory results: patent US20240016952A1
No constants are given. Whether binding was seen depends on the method and setting. Some results given as binding are weak or reduced against the parent protein; the word gives no strength.

What was measured:
[1] = biological target: recombinant cynomolgus monkey (Macaca fascicularis) transferrin receptor 1 (cynomolgus monkey (Macaca fascicularis)); assay: binding affinity before and after 9 days at 40 °C
[2] = biological target: recombinant human transferrin receptor 1 (human) (UniProt P02786); assay: binding affinity before and after 9 days at 40 °C

binding [1]: binds | binding [2]: binds
B1: humanized anti-TfR Fab 5H12 VH5 (C33Y)/Vκ4 (Fab, V domains shown)
VH: QVQLVQSGAEVKKPGASVKVSCKASGYSFTDYYINWVRQAPGQGLEWMGWIYPGSGNTRYSERFKGRVTITRDTSASTAYMELSSLRSEDTAVYYCAREDYYPYHGMDYWGQGTLVTVSS
VL: DIVMTQSPDSLAVSLGERATINCRASESVDGYDNSFMHWYQQKPGQPPKLLIFRASNLESGVPDRFSGSGSGTDFTLTISSLQAEDVAVYYCQQSSEDPWTFGQGTKLEIKR
